Assay [1] has as its target human PLA2G2D (human) (UniProt Q9UNK4). The assay is described as follows: assay not given.
For assay [2] the target is unchanged. The assay is described as follows: ELISA / flow cytometry screening of hybridoma antibodies.

By UniProt entry, the sequences of proteins in these tests, tags left out. Where a name states a change or a piece, a line headed by the entry shows the natural chain unless it says otherwise.
UniProt Q9UNK4: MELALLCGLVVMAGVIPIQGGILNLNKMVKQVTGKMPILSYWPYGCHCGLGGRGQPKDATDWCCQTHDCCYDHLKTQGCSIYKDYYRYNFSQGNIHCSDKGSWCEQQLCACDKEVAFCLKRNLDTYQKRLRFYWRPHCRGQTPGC

Results are given in words; binding and its absence hold for the method and conditions named. Some results given as binding are weak or reduced against the parent protein; the word gives no strength.

B1: 44.66C9.H2 (HC/LC) (antibody, V domains shown)
VH: DVQLQESGPGLVKPSQSLSLTCSVTGYSITSGYYWNWIRQFPGNKLEWMGYISYDGSNNYNPSLKSRISITRDTSKNQFFLKLNSVTTEDTATYYCARWGYYDSRIDYWGQGTTLTVSS
VL: ETTVTQSPASLSMAIGEKVTIRCITSTDIDDDMNWFQQKPGEPPKLLISEGNTLRPGVPSRFSSNGSGTDFVFTIENMLSEDVADYYCLQSDNLPFTFGAGTKVELK
As for B1, the binding entry with human PLA2G2D (human) [1] and with human PLA2G2D (human) [2] was “binds” each time.

B2: 44.18E2.G12 (antibody, V domains shown)
VH: DVQLQESGPGLVKPSQSLSLTCSVTGYSITSGYYWNWIRQFPGNKLEWMGYISYDGSKNYNPSLKSRISITRDTSKNQFFLKLNSVTTEDTATYYCARWGYYDSRIDYWGQGTTLTVSS
VL: ETTVTQSPASLSMAIGEKVTIRCITSTDIDDDMNWYQQKPGEPPKLLISEGNTFRPGVPSRFSSSGYGTDFVFTIENMLSEDVADYYCLQSDNLPFTFGAGTKVELK
Take B2: the binding entry with human PLA2G2D (human) [1] and in the assay with human PLA2G2D (human) [2] was “binds” each time.

B3: 48.33E9.B12 (antibody, V domains shown)
VH: QVQLKESGPGLVQPSQTLSLTCTVSGFSLTSKGVSWVRQPPGKGLEWIAAISSSGSTYYDSPLKSRLSISRDTSKSQVFLKMNSLQTEDTAIYFCTRVGDDRFDYWGQGVMVTVSS
VL: SYELIQPPSASVTLENTVSITCSGDELSNKYVHWYQQKPDKTILEVMYKDSERPSGISDRFSGSSSGTTAILTIRDAQAEDEADYYCLSTFNDDDLPVFGGGTKLTVL
As to B3, the binding entry in the assay with human PLA2G2D (human) [1] and with human PLA2G2D (human) [2] was “binds” in each case.

B4: 48.34F9.E10.C5 (antibody, V domains shown)
VH: QVQLKESGPGLVQPSQTLSLTCTVSGFSLTSNGVTWVRQPPGKGLEWIAAISSGGTTYYDSALKSRLSISRDTSKSQVFLQMNSLQTEDTATYFCARVGGDRFDYWGQGVMVTVSS
VL: SYELIQPPSASVTLENTVSITCSGDELSRKYVHWYQQKPDKTILEVMYKDSERPSGISDRFSGSSSGTTASLTIRDAQAEDEADYYCLSTYGVDDLPVFGGGTKLTVL
With B4, the binding result in the assay with human PLA2G2D (human) [1] and with human PLA2G2D (human) [2] was “binds” each time.

B5: 48.29H4.A5 (antibody, V domains shown)
VH: QVQLKESGPGLVQPSQTLSLTCTVSGFALTSYDMQWVRQPPGKGLEWMGAIWANGNIQYNSILKSRLSISRDTSKSQVFLKMNSLQTEDTAIYFCARFRFDYWGQGVMVTVSS
VL: DIQMTQSPASLSASLGETVTIECLASEDIYSNLAWYQQKPGKSPQLLIYDASSLQDGVPSRFSGSESGTQYSLEINSLQSEDAVTYFCQHHRDSPLTFGSGTKLEIK
Regarding B5, the binding result with human PLA2G2D (human) [1] and in the assay with human PLA2G2D (human) [2] was “binds” throughout.

B6: 48.15C1.A6 (antibody, V domains shown)
VH: QVQLKESGPGLVQPSQTLSLTCTVSGFSLISYDMHWVRQPPGEGLEWMGVIWSNGNTHYNSTLKSRLSISRDTSKSQVFLEMNSLQTEDTAIYFCSRYPFAYWGQGTLVTVSS
VL: DIQMTQSPSSLPASLGDRVTITCRASQDIGDYLRWFQQKPGKSPRLMIFGATNLANGVPSRFSGSRSGSDYSLTINSLESEDLAIYYCLQHKEYFPTFGGGTKLELK
B6: the binding result with human PLA2G2D (human) [1] and with human PLA2G2D (human) [2] was “binds” throughout.

B7: 48.29H4.A5 (LC2) (antibody, V domains shown)
VH: QVQLKESGPGLVQPSQTLSLTCTVSGFALTSYDMQWVRQPPGKGLEWMGAIWANGNIQYNSILKSRLSISRDTSKSQVFLKMNSLQTEDTAIYFCARFRFDYWGQGVMVTVSS
VL: DIQMTQSPSSLPASLGDRVTITCRASQDIGNYLRWFQQKPGKSPRLMIYGATNLANGVPSRFSGSRSGSDYSLTINSLESEDMAIYYCLQHNEYPLTFGSGTKLEIK
For the molecule B7, the binding entry with human PLA2G2D (human) [1] and with human PLA2G2D (human) [2] was “binds” in each case.

B8: 47.34G6.H6 (antibody, V domains shown)
VH: QVTLKESGPGILQSSQTLSLTCSFSGFSLSTSGMGVSWIRQPSGKGLEWLAHIYWDDANRYNPSLESRLTISKDTSRNQVFLKITSVDTADTATYYCAWRSGDWYFDVWGTGTTVTVSS
VL: QIVLTQSPAIMSASPGEKVTLSCSASSIVRYIYWYQQKPGSSPKPWIYRTFNLASGVPARFSGSGSGTSYSLTISTMEAEDAATYYCQQYHTYPLTFGAGTKLELK
Consider B8, for which the binding result in the assay with human PLA2G2D (human) [1] and in the assay with human PLA2G2D (human) [2] was “binds” throughout.

Source of the values: patent publication US20240327540A1.
